These are yes or no findings as the source states them, for the method shown. In cells and extracts the contact can be indirect. Some binding calls cover weakened binding; strength is not graded here.
Columns and labels:
[1] = target: Cyclin-dependent kinase 5 (human (endogenous in HUH7)) (UniProt Q00535); assay: co-IP; Pierce Crosslink Magnetic IP/Co-IP Kit; 5 μg CDK5 antibody or HIF-1α antibody, mouse IgG1 as control antibody; HUH7 cells treated with 100 μM deferoxamine for six hours; both directions; n = 3
[2] = target: Hypoxia-inducible factor-1α (human (endogenous in HUH7)) (UniProt Q16665); assay: as above

binding [1] | binding [2] | Substance
binds |  | Hypoxia-inducible factor-1α (from UniProt Q16665 1-826)
 | binds | Cyclin-dependent kinase 5 (from UniProt Q00535 1-292) (enzyme)

— paper PMC5053636
